# Laboratory results as given in PubChem BioAssay AID445 (National Center for Advancing Translational Sciences (NCATS), 2006).
# The list shows a part of the results. Further columns of the screen follow, without active or inactive calls. Most of these compounds were active or inconclusive in the main read-out, so they are no random draw. Potencies come from curve fits of mixed quality, noted in brackets.
# Assay: IkB Signaling
# Details: ABC-DLBCL IkBa-CBG/CBR dual luciferase ratio (green luciferase fused to IkBa over red control in OCI-Ly3 lymphoma cells), 4 h; measured here: control luc red channel unless noted
# Outline: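 Luminescence ratio of IκBα-fused green versus native red beetle luciferase in OCI-Ly3 cells, 4 h post-doxycycline with compound; red signal alone, scaled from basal (0%) to zero light (-100%), flagged nonspecific or cytotoxic effects.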
row,SMILES,AC50
1,COC(=O)c1ccc(Nc2nc(-c3ccccc3Cl)nc3ccccc23)cc1,"15.8 µM [falling, partial curve]"
2,COc1ccc(N2C(=O)CSC23C(=O)N(CC(=O)Nc2ccccc2F)c2ccccc23)cc1 (stereo not drawn),"39.8 µM [falling, single point]"
3,Cc1ccc(N(C)S(=O)(=O)c2ccc(-c3coc(C)n3)cc2)cc1,"25.1 µM [falling, single point]"
4,O=C(CSc1nnc(-c2c[nH]c3ccccc23)o1)N(Cc1ccccc1)c1ccc(F)cc1,"7.94 µM [falling, partial curve]"
5,CCn1cc(C(=O)Nc2ccc3c(c2)OCCO3)c2cc(OC)c(OC)cc2c1=O,"10 µM [falling, partial curve]"
6,CCc1nc2ccc(C(=O)N3CCN(c4cc(C)ccc4C)CC3)cc2nc1CC,"39.8 µM [falling, single point]"
7,CCOc1ccc(CCNC(=O)c2cc3sccc3n2CC)cc1OCC,"15.8 µM [falling, single point]"
8,CCOC(=O)CSc1nnc(CSc2nc3ccccc3c(=O)[nH]2)n1-c1ccccc1,"20 µM [falling, partial curve]"
9,Cc1nc2c(-c3ccc(F)cc3)c(C)nn2c(N2CCOCC2)c1C,"39.8 µM [falling, single point]"
10,O=C(COC(=O)c1cccnc1Nc1cccc(C(F)(F)F)c1)NCCN1C(=O)CSC1=O,"20 µM [falling, single point]"
11,COc1cc(C2C(C(=O)Nc3ccc(Cl)cc3)=C(C)Nc3nc(SC)nn32)cc(OC)c1OC (stereo not drawn),"0.2 µM [rising, full curve, poor fit]"
12,Cc1nn(CC(=O)NCCc2ccccc2)c(=O)c2nn(-c3ccccc3)c(C)c12,"1.58 µM [rising, full curve]"
13,Cc1ccc(-n2nc3c(N4CCC(C(=O)NC5CCCCC5)CC4)nnc(C)c3c2C)cc1,"1.58 µM [falling, partial curve]"
14,CC(C)Cc1ccc(S(=O)(=O)NCc2nc3cccnc3n2Cc2ccccc2)cc1,"0.1 µM [rising, full curve, poor fit]"
15,Cc1ccc(/C=C/C(=O)N2CCC(c3nc4ccccc4o3)CC2)cc1,"0.794 µM [falling, full curve]"
16,O=C(NCCCN1CCN(Cc2ccccc2)CC1)C1CCN(c2nnc(-n3cccc3)s2)CC1,"6.31 µM [falling, partial curve]"
17,CCCCNC(=O)c1ccc2c(c1)N=C(CC)c1ccccc1S2,"0.398 µM [rising, full curve, poor fit]"
18,CCc1cccc(CC)c1NC(=O)c1c(C)oc2ccc(O)c(CN3CCCC3)c12,"12.6 µM [falling, single point]"
19,COc1ccc(CCNc2oc(Cc3cccc4ccccc34)nc2C#N)cc1OC,"10 µM [falling, partial curve]"
20,Cc1nc(NC(=O)c2cc3c(s2)CCCCC3)sc1C(=O)N(C)C,"5.01 µM [falling, partial curve]"
21,Cc1ccc(N2C(=O)CSC23C(=O)N(CC(=O)NCc2ccccc2)c2ccccc23)cc1 (stereo not drawn),"39.8 µM [falling, single point]"

row,SMILES,AC50
1,O=C(CN1C(=O)C2(SCC(=O)N2c2ccc(F)cc2)c2ccccc21)NC1CCCCC1 (stereo not drawn),"12.6 µM [falling, partial curve]"
2,Cc1ccccc1-n1nnnc1SCc1csc(-c2ccccc2)n1,"25.1 µM [falling, single point]"
3,Cc1ccc2c(c1)C(=O)OC(C(=O)Nc1ccccc1C(=O)O)C2 (stereo not drawn),"0.158 µM [falling, full curve]"
4,NC(=O)c1ccccc1N/C=C/C(=O)c1ccccc1,"0.316 µM [falling, full curve]"
5,O=S(=O)(c1ccc(-c2cnc(C3CC3)o2)cc1)N1CCN(c2ccccc2F)CC1,"6.31 µM [falling, single point]"
6,O=C(NCCCN1CCN(c2cccc(Cl)c2)CC1)c1ccc2nc(Cc3ccccc3)oc2c1,"20 µM [falling, partial curve]"
7,COc1cccc(CNC(=O)Cn2nc(C)c3sc4ccccc4c3c2=O)c1OC,"6.31 µM [falling, single point]"
8,Cc1cccc(C)c1OCC(=O)N(Cc1ccco1)Cc1ccco1,"20 µM [falling, single point]"
9,C=Cc1ccc(Cn2c(C)c(CNCCc3ccc(OCC)cc3)c(C(=O)O)c2C)cc1,"31.6 µM [falling, partial curve]"
10,CCn1cc(C(=O)N2CCN(c3cccc(Cl)c3)CC2)c(=O)c2cc(S(=O)(=O)N3CCC(C)CC3)ccc21,"7.94 µM [falling, partial curve]"
11,Cc1ccc2c(=O)cc(CSc3ncn[nH]3)[nH]c2c1C,"0.02 µM [falling, full curve, poor fit]"
12,COc1cc(C(=O)NCCc2sc(-c3cccc(F)c3)nc2C)cc(OC)c1OC,"25.1 µM [falling, partial curve]"
13,Cc1nc2cc(-c3cccc(F)c3)nn2c(C)c1CCC(=O)NC(C)c1ccccc1 (stereo not drawn),"5.01 µM [falling, partial curve]"
14,COC(=O)c1c(NC(=O)C2c3ccccc3Oc3ccccc32)sc2c1CCC(C(C)(C)C)C2 (stereo not drawn),"0.794 µM [falling, full curve]"
15,COc1cc2c(cc1NC(=O)c1ccccc1C)n(C)c(=O)n2C,"10 µM [rising, partial curve, poor fit]"
16,O=C(CSc1oc(-c2ccc(F)cc2)nc1S(=O)(=O)c1ccccc1)NC1CCCCC1,"0.631 µM [falling, single point]"
17,COc1ccc(CN(C(=O)CSc2nnc(-c3ccccc3F)o2)c2ccc(F)cc2)cc1,"12.6 µM [falling, partial curve]"
18,CCOC(=O)c1ccc(NC(=O)c2oc3c(c2C)-c2nn(Cc4ccccc4Cl)cc2CC3)cc1,"2.51 µM [falling, full curve]"
19,COCCOC(=O)c1c(C)oc2ccc(NS(=O)(=O)c3ccc(F)cc3)cc12,"6.31 µM [falling, partial curve]"
20,Cn1c(=O)c2c(nc(NCCc3ccccc3)n2Cc2ccc(F)cc2)n(C)c1=O,"7.94 µM [falling, partial curve]"
21,CN(c1cccc(NC(=O)Nc2cccc(Cl)c2)c1)S(C)(=O)=O,"7.94 µM [falling, partial curve]"

row,SMILES,AC50
1,CCN1CCN(c2oc(COc3ccc(-c4ccccc4)cc3)nc2C#N)CC1,"25.1 µM [falling, single point]"
2,Cc1cc2oc(C(=O)N(Cc3ccc(N(C)C)cc3)Cc3ccco3)c(C)c2cc1Cl,"12.6 µM [falling, single point]"
3,Cc1ccccc1Nc1nc(N)c(C(=O)c2ccccc2Cl)s1,"6.31 µM [falling, partial curve]"
4,CCCCc1ccc(NC(=O)CSc2nc(=O)[nH]c3c2CCCC3)cc1,"12.6 µM [falling, partial curve]"
5,COc1ccc(Cl)cc1N(C)C(=O)CCc1nc(-c2ccc(C)cc2)no1,"1 µM [falling, partial curve]"
6,O=C(CSc1nc2c([nH]c3ccccc32)c(=O)n1-c1ccccc1F)Nc1cccc(C(F)(F)F)c1,"25.1 µM [falling, single point]"
7,COc1cccc(N2CC(NC(=O)COc3ccccc3F)CC2=O)c1 (stereo not drawn),"6.31 µM [rising, single point]"
8,COC(=O)CCN(c1ccccc1)C(CNS(=O)(=O)c1ccccc1)c1ccccc1 (stereo not drawn),"15.8 µM [falling, partial curve]"
9,O=C(Nc1cccc(C(=O)OCc2cc(=O)n3nc(C4CC4)sc3n2)c1)c1cccc(Cl)c1,"0.501 µM [falling, full curve]"
10,COc1ccc(-c2nnc(SC(C)C(=O)O)o2)cc1 (stereo not drawn),"15.8 µM [falling, partial curve]"
11,O=C(CN1C(=O)CSc2ccc(S(=O)(=O)N3CCCC3)cc21)NCc1ccccc1Cl,"25.1 µM [falling, single point]"
12,CC(=O)N1CCCc2cc(S(=O)(=O)N3CCCC(C(=O)NC(C)C)C3)ccc21 (stereo not drawn),"0.0398 µM [falling, full curve, poor fit]"
13,CCCCNC(=O)CCc1c(C)nc2cc(-c3ccccc3)nn2c1C,"5.01 µM [falling, partial curve]"
14,CC(=O)c1cccc(NC(=O)C2CCCN(S(=O)(=O)c3cccc4cccnc34)C2)c1 (stereo not drawn),"25.1 µM [falling, partial curve]"
15,Cc1[nH]c2ccccc2c1C1(O)C(=O)N(Cc2ccccc2)c2ccc(Cl)cc21 (stereo not drawn),"20 µM [falling, partial curve]"
16,CCOc1ccc(C2c3c(oc4ccc(C)cc4c3=O)C(=O)N2CCCN(C)C)cc1OC (stereo not drawn),"6.31 µM [rising, single point]"
17,CC(C)Oc1ccc(CNC(=O)c2sc3ncccc3c2-n2cccc2)cc1,"7.94 µM [falling, partial curve]"
18,CCc1ccc2occ(CC(=O)Nc3ccc(OC)c(Cl)c3)c2c1,"20 µM [falling, partial curve]"
19,O=C(CSc1cccc(C(F)(F)F)c1)NC(=O)NCc1ccco1,"12.6 µM [falling, partial curve]"
20,COc1ccc(CN(Cc2ccco2)C(=O)COc2ccccc2OC)cc1,"39.8 µM [falling, single point]"
21,CCc1ccccc1-n1cnc2cc(C(=O)NC3CCCCCC3)ccc21,"31.6 µM [falling, partial curve]"

# 4 of these compounds in a different format:
row	SMILES	AC50
21	Cc1ccc(N2C(=O)CSC23C(=O)N(CC(=O)NCc2ccccc2)c2ccccc23)cc1 (stereo not drawn)	39.8 µM [falling, single point]
1	O=C(CN1C(=O)C2(SCC(=O)N2c2ccc(F)cc2)c2ccccc21)NC1CCCCC1 (stereo not drawn)	12.6 µM [falling, partial curve]
2	Cc1ccccc1-n1nnnc1SCc1csc(-c2ccccc2)n1	25.1 µM [falling, single point]
3	Cc1ccc2c(c1)C(=O)OC(C(=O)Nc1ccccc1C(=O)O)C2 (stereo not drawn)	0.158 µM [falling, full curve]
